Measurements from the supplement of paper PMC11637464.
Where a name gives a salt, the structure may show the parent alone. Some of the results follow. Many values rest on one well or one pass, so single values are uncertain.

Test system: primary mouse Muller glia with Ascl1 overexpression
Experiment: progenitor-like (ProL) cell count fold change vs Ascl1-only control (log2 fold change); higher = more progenitor-like cells
Experimental: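 Primary P11 mouse Muller glia carrying dox-inducible Ascl1 were treated with Tocriscreen Stem Cell Library compounds at 0.1, 1 or 10 uM together with doxycycline for 5 days, then profiled by sci-Plex hashing and sci-RNA-seq2. Cells were annotated by marker genes and cell-type counts per well were size-factor adjusted. Read-outs are the log2 fold change of Neuronal (NeuPre + bipolar) and ProL cell counts versus the Ascl1-only control wells of the same collection day, plus the raw number of recovered cells per well. There is one well per dose, and wells with fewer than 20 cells were discarded.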

| Compound | progenitor-like (log2) (0.1 µM) | progenitor-like (log2) (1 µM) | progenitor-like (log2) (10 µM) |
| --- | --- | --- | --- |
| O=C(O)c1ccc2cc(-c3ccc(O)c(C45CC6CC(CC(C6)C4)C5)c3)ccc2c1 (collection day: 1) | 0.495 |  |  |
| O=C(O)c1ccccc1C(=O)Nc1ccc(-c2ccccc2)cc1 [Kartogenin] (collection day: 2) | 0.0627 | 0.123 | 0.181 |
| CC(=O)N(C)c1cccc(-c2ccc3nnc(C)n3n2)c1 (collection day: 2) | 0.209 | 0.181 | 0 |
| O=C(NC1CCOCC1)c1ccc(-c2cc(-c3c[nH]nc3-c3ccccn3)ccn2)cc1 (collection day: 2) | 0.0627 | -0.0995 | -0.206 |
| CCN(CC)CCCCNc1ncc2cc(-c3cc(OC)cc(OC)c3)c(NC(=O)NC(C)(C)C)nc2n1 (collection day: 1) | 0.541 | 0.495 |  |
| Nc1nc(N)c2nc(-c3cccc(Cl)c3)c(N)nc2n1 [Epiblastin A] (collection day: 2) | 0.0317 | 0.236 | 0.123 |
| O=C(NNc1ccccc1)c1ccncc1 [PluriSln 1] (collection day: 2) | 0.366 | 0.152 | 0.236 |
| C[S+]([O-])c1ccc(-c2nc(-c3ccc(F)cc3)c(-c3ccncc3)[nH]2)cc1 (stereo unspecified) (collection day: 1) | 0.585 | 1 | 0.67 |
| NCCNS(=O)(=O)c1ccc(Cl)c2ccncc12 [CKI 7 dihydrochloride] (collection day: 2) | 0.123 | -0.0324 | 0.123 |
| NC(=O)c1cccnc1 [Nicotinamide] (collection day: 2) | -0.0656 | 0.152 | -0.0656 |
| O=C(O)CCCc1ccccc1 [Sodium 4-Phenylbutyrate] (collection day: 1) | 0.495 | -0.138 | -0.29 |
| CN(CCOc1ccc(CC2SC(=O)NC2=O)cc1)c1ccccn1 (stereo unspecified) [Rosiglitazone] (collection day: 2) | -0.134 | 0.181 | 0.263 |
| COc1cccc(-c2cc(=O)c3ccccc3o2)c1N (collection day: 1) | 0.585 | 0.184 | 0.495 |
| COC(=O)C1=C(C)NC(C)=C([N+](=O)[O-])C1c1ccccc1C(F)(F)F (stereo unspecified) (collection day: 1) | 0.447 | 0.826 | 0.447 |
| CC1(C)CCC(C)(C)c2cc(C(=O)Nc3ccc(C(=O)O)cc3)ccc21 (collection day: 1) | 0.863 | 0.399 |  |

Some of the entries so far, tab-delimited.
Compound	progenitor-like (log2) (0.1 µM)	progenitor-like (log2) (1 µM)	progenitor-like (log2) (10 µM)
C[S+]([O-])c1ccc(-c2nc(-c3ccc(F)cc3)c(-c3ccncc3)[nH]2)cc1 (stereo unspecified) (collection day: 1)	0.585	1	0.67
NCCNS(=O)(=O)c1ccc(Cl)c2ccncc12 [CKI 7 dihydrochloride] (collection day: 2)	0.123	-0.0324	0.123
